# Assay: general procedure: peptide synthesis; IBCF/NMM (mixed anhydride)
# Conditions: late stage modification step
substance,measurement,value
"(E)-N-(1,1-Dimethylethoxy)carbonyl!-L-alanyl-L-alanyl-N-2-(acetyloxy)-3, 3,3-trifluoro-1-(1-methylethyl)-1-propenyl!-L-prolinamide (SEQ. ID NO. 2)",crude purity (method not given),91%
same,step yield,50% yield
